# Literature values, collected in patent US6903117B2, “Indole derivatives for the treatment of osteoporosis” (Nikem Research S.R.L., priority 1996, dated 2005).
# At least one structure is not confirmed: it was looked up by name or label, or the drawing left a doubt.
# Test system: osteoclast proton pump
# Settings: avian osteoclast membrane vesicles; cited from earlier work
compound,measurement,value
COc1ccc2[nH]c([S+]([O-])Cc3ncc(C)c(OC)c3C)nc2c1 (stereo not shown) [omeprazole],inhibition of proton transport by the osteoclast proton pump,not inhibited
